Counter-ions that a name gives are not always drawn. Some of the results follow. Repeats in this data set agree poorly, so a single value says little.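 Human embryonic kidney cells were transiently transfected with a plasmid bearing a Renilla luciferase gene under the HSV-TK promoter. This first-round screen tests roughly ten thousand compounds for ones that increase reporter output.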
These compounds were tested on HEK 293FT (assay: log relative Renilla luciferase luminescence (reporter expression vs reference, reference not stated) (log (base not stated)); higher = higher recombinant reporter expression). Details: 10 µM; time after transfection 48 h.

Row | SMILES | log
1 | O=c1oc2ccccc2c(O)c1Cc1c(O)c2ccccc2oc1=O [dicumarol] | -0.134
2 | COC(=O)/C=C/C(C)=C\C=C\C(C)=C\C=C\C=C(C)\C=C\C=C(C)\C=C\C(=O)O [bixin] | -0.699
3 | O=S(=O)(O)NC1CCCCC1 [cyclamic acid] | -0.0828
4 | CC(C)NC[C@@H](O)COc1cccc2ccccc12 [dexpropranolol hydrochloride] | 0.0263
5 | CCc1cn([C@H]2C[C@H](O)[C@@H](CO)O2)c(=O)[nH]c1=O [edoxudine] | 0.00835
6 | C[C@@H]1O[C@@H](O[C@H]2[C@H](Oc3cc(O)c4c(=O)cc(-c5ccc(O)cc5)oc4c3)O[C@H](CO)[C@@H](O)[C@@H]2O)[C@H](O)[C@H](O)[C@H]1O [rhoifolin] | -0.0187
7 | CCN(CC)CCc1nc(-c2ccccc2)no1 [oxolamine citrate] | 0.0854
8 | O=S(=O)([O-])NC1CCCCC1.[Na+] [sodium cyclamate] | -0.0924
9 | Cc1c(N(C)CS(=O)(=O)O)c(=O)n(-c2ccccc2)n1C [dipyrone] | 0.103
10 | CN(C)[C@@H]1C(O)=C(C(=O)NCN2CCCC2)C(=O)[C@@]2(O)C(O)=C3C(=O)c4c(O)cccc4[C@@](C)(O)[C@H]3C[C@@H]12 [rolitetracycline] | -0.154
11 | CC(NCCC(c1ccccc1)c1ccccc1)c1ccccc1 (stereo unspecified) [fendiline hydrochloride] | 0.0799
12 | CC1(C)OC(=O)NC1=O [dimethadione] | -0.132
13 | N=C(N)NCC1COC2(CCCCC2)O1 (stereo unspecified) [guanadrel sulfate] | -0.0333
14 | CCC[C@H](N[C@@H](C)C(=O)N1[C@H](C(=O)O)C[C@@H]2CCCC[C@@H]21)C(=O)OCC [perindopril erbumine] | -0.00801
15 | Cn1nnnc1SCC1=C(C(=O)O)N2C(=O)[C@@H](NC(=O)[C@H](O)c3ccccc3)[C@H]2SC1 [cefamandole sodium] | -0.0802
16 | COc1ccc(NS(=O)(=O)c2ccc(N)cc2)nn1 [sulfamethoxypyridazine] | 0.0597
17 | Nc1ccc(C(=O)NCC(=O)O)cc1 [aminohippuric acid] | 0.16
18 | OC[C@H]1O[C@@H](Oc2ccc(O)cc2)[C@H](O)[C@@H](O)[C@@H]1O [arbutin] | 0.0043
19 | Nc1ccc(S(=O)(=O)c2ccc(N)cc2)cc1 [dapsone] | 0.107
20 | OCCN1CCN(CCCN2c3ccccc3Sc3ccc(Cl)cc32)CC1 [perphenazine] | 0.224
21 | CN(C)CCc1c[nH]c2ccc(Cn3cncn3)cc12 [rizatriptan benzoate] | 0.0604
22 | COc1cc(/C=C/C(=O)O)cc(OC)c1OC [sinapic acid methyl ether] | 0.0467
23 | N[C@H]1C(O)O[C@H](CO)[C@@H](O)[C@@H]1O (stereo partly specified) [glucosamine hydrochloride] | 0.125
24 | C=C1C[C@H]2[C@@H]3C=C(C)C4=CC(=O)CC[C@]4(C)[C@H]3CC[C@]2(C)[C@@]1(OC(C)=O)C(C)=O [melengestrol acetate] | -1.64
25 | NC(C(=O)O)C(O)C(=O)O (stereo not drawn) [d,l-threo-3-hydroxyaspartic acid] | 0.0569
26 | N=C(N)NC(=N)N1CCOCC1 [moroxydine hydrochloride] | 0.0147

Row | SMILES | log
27 | CC(=O)Oc1cccc2c1C(=O)c1c(OC(C)=O)cc(C(=O)O)cc1C2=O [diacerin] | -0.0713
28 | CC1NC(=O)NC1=O (stereo unspecified) [5-methylhydantoin] | 0.0116
29 | Cc1ncc(CSSCc2cnc(C)c(O)c2CO)c(CO)c1O [pyritinol] | 0.0418
30 | CN1CCCCC1CCN1c2ccccc2Sc2ccc([S+](C)[O-])cc21 (stereo unspecified) [mesoridazine besylate] | -0.0105
31 | COc1c(-c2ccccc2)oc2cc(O)cc(O)c2c1=O [galangin 3-o-methyl ether] | 0.056
32 | O=C(O[C@H]1CN2CCC1CC2)N1CCc2ccccc2[C@@H]1c1ccccc1 [solifenacin succinate] | -0.0467
33 | NC(=O)N/N=C/c1ccc([N+](=O)[O-])o1 [nitrofurazone] | -0.0277
34 | CC1=CC(=O)NS(=O)(=O)O1 [acesulfame potassium] | 0.0874
35 | CCCC(=O)Nc1ncnc2c1ncn2[C@@H]1O[C@@H]2COP(=O)(O)O[C@H]2[C@H]1OC(=O)CCC [bucladesine] | 0.0261
36 | CC(=O)N[C@@H](CCC(=O)O)C(=O)O [acetylglutamic acid] | 0.114
37 | CN(C)CCC[C@@]1(c2ccc(F)cc2)OCc2cc(C#N)ccc21 [escitalopram oxalate] | -1.46
38 | CN1CCCC(n2nc(Cc3ccc(Cl)cc3)c3ccccc3c2=O)CC1 (stereo unspecified) [azelastine hydrochloride] | 0.0463
39 | O=C(CNC(=O)c1ccc(Cl)cc1)NO [benurestat] | 0.0147
40 | CC(=O)Oc1cccc(O)c1 [resorcinol monoacetate] | 0.255
41 | CCN1CCN(C(=O)N[C@@H](C(=O)N[C@@H]2C(=O)N3[C@@H]2SC(C)(C)[C@@H]3C(=O)O)c2ccccc2)C(=O)C1=O [piperacillin sodium] | -0.0298
42 | C=CCCCCCCCCCCCC(O)CC(O)CO (stereo unspecified) [avocadene] | 0.0726
43 | CO[C@@H]1[C@@H](OC(N)=O)[C@@H](O)[C@H](Oc2ccc3c(O)c(NC(=O)c4ccc(O)c(CC=C(C)C)c4)c(=O)oc3c2C)OC1(C)C [novobiocin sodium] | -0.0988
44 | CN1C2CCCC1CC(NC(=O)c1nn(C)c3ccccc13)C2 (stereo unspecified) [granisetron hydrochloride] | 0.164
45 | CC(C)CCC[C@@H](C)[C@H]1CC[C@H]2[C@@H]3CC=C4CC(=O)CC[C@]4(C)[C@H]3CC[C@]12C [cholest-5-en-3-one] | 0.033
46 | CC(C)N1CCN(c2ccc(OCC3COC(Cn4cncn4)(c4ccc(Cl)cc4Cl)O3)cc2)CC1 (stereo unspecified) [terconazole] | -0.241
47 | CCN(Cc1ccncc1)C(=O)C(CO)c1ccccc1 (stereo unspecified) [tropicamide] | -0.0739
48 | OC(CCN1CCCCC1)(c1ccccc1)C1CC2C=CC1C2 (stereo unspecified) [biperiden] | -0.0702
49 | Cc1ncc([N+](=O)[O-])n1CCO [metronidazole] | -0.147
50 | CCN(CC)CC#CCOC(=O)C(O)(c1ccccc1)C1CCCCC1 (stereo unspecified) [oxybutynin chloride] | -0.0775
51 | Oc1nc2cc(Cl)c(Cl)cc2nc1O [2,3-dihydroxy-6,7-dichloroquinoxaline] | 0.0931
52 | CC(=O)OC1CCC23CC1(C)CCC2C(C)(C)CC3OC(C)=O (stereo unspecified) [clovanediol diacetate] | 0.0342

Row | SMILES | log
53 | C=CC[C@@H]1/C=C(\C)C[C@H](C)C[C@H](OC)[C@H]2O[C@@](O)(C(=O)C(=O)N3CCCC[C@H]3C(=O)O[C@H](/C(C)=C/[C@@H]3CC[C@@H](O)[C@H](OC)C3)[C@H](C)[C@@H](O)CC1=O)[C@H](C)C[C@@H]2OC [tacrolimus] | 0.208
54 | NC[C@H]1O[C@H](O[C@H]2[C@H](O[C@@H]3O[C@H](CO)[C@@H](O)[C@H]3O)[C@@H](O)[C@H](N)C[C@@H]2N)[C@H](N)[C@@H](O)[C@@H]1O [ribostamycin sulfate] | 0.00428
55 | COc1ccc2[nH]cc(CCNC(C)=O)c2c1 [melatonin] | 0.0204
56 | CCn1cc(C(=O)O)c(=O)c2cnc(N3CCNCC3)nc21 [pipemidic acid] | 0.074
57 | COc1cc2nc(N3CCN(C(=O)c4ccco4)CC3)nc(N)c2cc1OC [prazosin hydrochloride] | -0.00201
58 | NCCS(=O)(=O)O [taurine] | -0.102
59 | O=c1c(O)cccc2cc(O)c(O)c(O)c12 [purpurogallin] | 0.104
60 | Cc1ccc(S(=O)(=O)NC(=O)NN2CC3CCCC3C2)cc1 (stereo unspecified) [gliclazide] | 3.55e-05
61 | CC(=O)N[C@@H](CC(=O)N[C@@H](CCC(=O)O)C(=O)O)C(=O)O [spaglumic acid] | 0.089
62 | Nc1nc(=O)c2[nH]c(=O)cnc2[nH]1 [xanthopterin] | -0.15
63 | C#CCN(C)Cc1ccccc1 [pargyline hydrochloride] | -0.0289
64 | CC(=O)O[C@H]1CC[C@@]2(C)[C@H](CC[C@@H]3[C@@H]2CC[C@]2(C)[C@@H]4[C@H](C[C@@H]32)O[C@]2(CC[C@@H](C)CO2)[C@H]4C)C1 [smilagenin acetate] | -0.00666
65 | CCCCCC(C)N (stereo unspecified) [tuaminoheptane sulfate] | 0.00562
66 | COc1ccc2cc(CCC(C)=O)ccc2c1 [nabumetone] | 0.184
67 | O=C(O)CCC(=O)OC[C@@H](NC(=O)C(Cl)Cl)[C@H](O)c1ccc([N+](=O)[O-])cc1 [chloramphenicol sodium succinate] | -0.215
68 | CCn1cc(C(=O)O)c(=O)c2ccc(C)nc21 [nalidixic acid] | 0.239
69 | COc1ccc(-c2oc3c(CC=C(C)C)c(O[C@@H]4O[C@H](CO)[C@@H](O)[C@H](O)[C@H]4O)cc(O)c3c(=O)c2O[C@@H]2O[C@@H](C)[C@H](O)[C@@H](O)[C@H]2O)cc1 [icariin] | -0.195
70 | C[C@H]1[C@@H](O)O[C@@H]2O[C@@]3(C)CC[C@H]4[C@H](C)CC[C@@H]1[C@@]24OO3 [artenimol] | -0.484
71 | CCN(CC)CCNC(=O)c1cc(S(C)(=O)=O)ccc1OC [tiapride hydrochloride] | 0.0566
72 | O=C(CCCN1CC=C(n2c(=O)[nH]c3ccccc32)CC1)c1ccc(F)cc1 [droperidol] | 0.0943
73 | Oc1c(I)cc(I)c2cccnc12 [iodoquinol] | -0.0417
74 | O=c1cc(-c2ccc(O)cc2)oc2cc(O)cc(O)c12 [apigenin] | 0.136
75 | CCOc1cccc(C(=O)c2ccc(O)c(O)c2O)c1 [3,4-didesmethyl-5-deshydroxy-3'-ethoxyscleroin] | 0.0358
76 | CC(=O)OCC(COC(C)=O)OC(C)=O [triacetin] | 0.00411

Of the compounds above, 3 contain a nitro group on carbon.
Row | SMILES | log
33 | NC(=O)N/N=C/c1ccc([N+](=O)[O-])o1 [nitrofurazone] | -0.0277
49 | Cc1ncc([N+](=O)[O-])n1CCO [metronidazole] | -0.147
67 | O=C(O)CCC(=O)OC[C@@H](NC(=O)C(Cl)Cl)[C@H](O)c1ccc([N+](=O)[O-])cc1 [chloramphenicol sodium succinate] | -0.215

Source: the supplement of paper PMC7024190
